Record: PubChem BioAssay AID1508597 (Cure First, 2020)
Purpose: 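Knock-downs altering ovarian cancer cell survival with or without PARP inhibitor rucaparib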 (primary screen). System: human ovarian carcinoma lines grown from tumours: OCI-P5x (papillary serous) and OCI-C5x (clear cell). Knock-down reagent: siRNA pool against human genes, 1.25 pmol siRNA per well. Duration: 72 h or 96 h, depending on the cell culture. Challenge: rucaparib 20 µM (about IC30) or vehicle, present until read-out. Rucaparib or vehicle: Rucaparib. Cell line: OCI-C5x (clear cell). Read-out: 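ATP luminescence measured at 72 or 96 h according to the culture, then normalised and expressed as percent viability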. Reading the numbers: viability, normalised: higher = more viable cells remaining. Hit rule: 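Active when normalised viability falls below 80 percent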. Calls: active = viability under 80%; inactive = viability 80% or more.
This is a random part of the about 2,100 reagents, under one of the conditions tested. 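Calls flag viability under 80% in either arm, not effects specific to rucaparib; the reference for percent is not stated.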 Unmarked entries are inactive. Some reagents were tested in more than one well and are listed for each. Not stated in the record: the 100% reference.

Which result is listed for RAD51B (GeneID 5890), technical replicate 1?
viability, normalised (%): 71.4 (active)

For RAD51B (GeneID 5890), technical replicate 2, what does the deposit list?
viability, normalised (%): 52.8 (active)

What is on record for RAD51B (GeneID 5890), technical replicate 3?
viability, normalised (%): 47.5 (active)

Which result is listed for TLR7 (GeneID 51284), technical replicate 1?
viability, normalised (%): 70.8 (active)

What is on record for TLR7 (GeneID 51284), technical replicate 2?
viability, normalised (%): 61.9 (active)

With TLR7 (GeneID 51284), technical replicate 3, what does the deposit list?
viability, normalised (%): 53.5 (active)

With PRKY (GeneID 5616), technical replicate 1, what was measured?
viability, normalised (%): 53.6 (active)

With PRKY (GeneID 5616), technical replicate 2, how do the results read?
viability, normalised (%): 65.1 (active)

How did the screen score PRKY (GeneID 5616), technical replicate 3?
viability, normalised (%): 39.8 (active)

Which result is listed for HMGN5 (GeneID 79366), technical replicate 1?
viability, normalised (%): 58.5 (active)

What is on record for HMGN5 (GeneID 79366), technical replicate 2?
viability, normalised (%): 55 (active)

For HMGN5 (GeneID 79366), technical replicate 3, how do the results read?
viability, normalised (%): 62.6 (active)

With BRD7P3 (GeneID 23629), technical replicate 1, what does the deposit list?
viability, normalised (%): 63.6 (active)

With BRD7P3 (GeneID 23629), technical replicate 2, what does the deposit list?
viability, normalised (%): 53.2 (active)

With BRD7P3 (GeneID 23629), technical replicate 3, how do the results read?
viability, normalised (%): 33.1 (active)

For NTHL1 (GeneID 4913), technical replicate 1, what does the deposit list?
viability, normalised (%): 31.2 (active)

With NTHL1 (GeneID 4913), technical replicate 2, how do the results read?
viability, normalised (%): 33.7 (active)

Which result is listed for NTHL1 (GeneID 4913), technical replicate 3?
viability, normalised (%): 30.2 (active)

What is on record for FOXC2 (GeneID 2303), technical replicate 1?
viability, normalised (%): 34.2 (active)

With FOXC2 (GeneID 2303), technical replicate 2, what does the deposit list?
viability, normalised (%): 42 (active)

What is on record for FOXC2 (GeneID 2303), technical replicate 3?
viability, normalised (%): 37.5 (active)

With DDB2 (GeneID 1643), technical replicate 1, what does the deposit list?
viability, normalised (%): 60.4 (active)

What is on record for DDB2 (GeneID 1643), technical replicate 1?
viability, normalised (%): 48.9 (active)

What did the screen give for DDB2 (GeneID 1643), technical replicate 1?
viability, normalised (%): 53.1 (active)

With DDB2 (GeneID 1643), technical replicate 2, what was measured?
viability, normalised (%): 44.2 (active)

What did the screen give for DDB2 (GeneID 1643), technical replicate 2?
viability, normalised (%): 55.4 (active)

How did the screen score DDB2 (GeneID 1643), technical replicate 2?
viability, normalised (%): 55.9 (active)

How did the screen score DDB2 (GeneID 1643), technical replicate 3?
viability, normalised (%): 39.3 (active)

How did the screen score DDB2 (GeneID 1643), technical replicate 3?
viability, normalised (%): 65.1 (active)

For DDB2 (GeneID 1643), technical replicate 3, what was measured?
viability, normalised (%): 59.8 (active)

With SP100 (GeneID 6672), technical replicate 1, what does the deposit list?
viability, normalised (%): 80.1

How did the screen score SP100 (GeneID 6672), technical replicate 2?
viability, normalised (%): 62.1 (active)

What is on record for SP100 (GeneID 6672), technical replicate 3?
viability, normalised (%): 57.5 (active)

What is on record for RAD54L2 (GeneID 23132), technical replicate 1?
viability, normalised (%): 48.4 (active)

With RAD54L2 (GeneID 23132), technical replicate 2, how do the results read?
viability, normalised (%): 52.1 (active)

What is on record for RAD54L2 (GeneID 23132), technical replicate 3?
viability, normalised (%): 53.2 (active)

For GEMIN4 (GeneID 50628), technical replicate 1, what was measured?
viability, normalised (%): 29.4 (active)

Which result is listed for GEMIN4 (GeneID 50628), technical replicate 2?
viability, normalised (%): 33 (active)

What is on record for GEMIN4 (GeneID 50628), technical replicate 3?
viability, normalised (%): 45.4 (active)

With TAOK3 (GeneID 51347), technical replicate 1, what was measured?
viability, normalised (%): 55.4 (active)

With TAOK3 (GeneID 51347), technical replicate 2, how do the results read?
viability, normalised (%): 87.2

What is on record for TAOK3 (GeneID 51347), technical replicate 3?
viability, normalised (%): 75 (active)
